Consider 40 targets from the supplement of paper PMC12067093, “Discovery and optimisation of a covalent ligand for TRIM25 and its application to targeted protein ubiquitination” (Chemical Science, 2025).

Sequences of proteins named here, by UniProt entry; tags and fusion partners are left off. A change or cut given only in a name is not applied to a line headed by its entry.
UniProt Q9P0L0: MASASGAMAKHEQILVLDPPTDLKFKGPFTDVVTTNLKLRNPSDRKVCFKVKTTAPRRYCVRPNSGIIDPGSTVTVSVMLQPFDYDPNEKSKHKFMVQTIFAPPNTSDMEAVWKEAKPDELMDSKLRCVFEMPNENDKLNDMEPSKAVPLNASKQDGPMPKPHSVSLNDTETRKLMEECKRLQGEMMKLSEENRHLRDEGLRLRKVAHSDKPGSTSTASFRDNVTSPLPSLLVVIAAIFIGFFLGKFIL
UniProt Q9NYH9: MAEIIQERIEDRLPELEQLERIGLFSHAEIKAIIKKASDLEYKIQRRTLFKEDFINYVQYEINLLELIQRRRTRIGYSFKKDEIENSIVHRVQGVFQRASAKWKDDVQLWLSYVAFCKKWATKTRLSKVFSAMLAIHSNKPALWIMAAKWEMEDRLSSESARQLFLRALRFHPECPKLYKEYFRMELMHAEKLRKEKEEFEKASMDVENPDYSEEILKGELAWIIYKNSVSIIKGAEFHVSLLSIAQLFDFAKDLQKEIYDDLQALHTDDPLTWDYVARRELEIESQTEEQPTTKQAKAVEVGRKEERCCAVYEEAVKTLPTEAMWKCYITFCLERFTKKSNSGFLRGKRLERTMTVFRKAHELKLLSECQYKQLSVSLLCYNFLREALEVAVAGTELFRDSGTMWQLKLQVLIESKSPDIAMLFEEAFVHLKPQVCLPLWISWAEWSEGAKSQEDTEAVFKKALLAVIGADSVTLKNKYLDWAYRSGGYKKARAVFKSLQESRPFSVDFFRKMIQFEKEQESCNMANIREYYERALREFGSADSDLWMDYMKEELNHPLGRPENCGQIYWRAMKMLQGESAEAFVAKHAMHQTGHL
UniProt Q7Z5K2: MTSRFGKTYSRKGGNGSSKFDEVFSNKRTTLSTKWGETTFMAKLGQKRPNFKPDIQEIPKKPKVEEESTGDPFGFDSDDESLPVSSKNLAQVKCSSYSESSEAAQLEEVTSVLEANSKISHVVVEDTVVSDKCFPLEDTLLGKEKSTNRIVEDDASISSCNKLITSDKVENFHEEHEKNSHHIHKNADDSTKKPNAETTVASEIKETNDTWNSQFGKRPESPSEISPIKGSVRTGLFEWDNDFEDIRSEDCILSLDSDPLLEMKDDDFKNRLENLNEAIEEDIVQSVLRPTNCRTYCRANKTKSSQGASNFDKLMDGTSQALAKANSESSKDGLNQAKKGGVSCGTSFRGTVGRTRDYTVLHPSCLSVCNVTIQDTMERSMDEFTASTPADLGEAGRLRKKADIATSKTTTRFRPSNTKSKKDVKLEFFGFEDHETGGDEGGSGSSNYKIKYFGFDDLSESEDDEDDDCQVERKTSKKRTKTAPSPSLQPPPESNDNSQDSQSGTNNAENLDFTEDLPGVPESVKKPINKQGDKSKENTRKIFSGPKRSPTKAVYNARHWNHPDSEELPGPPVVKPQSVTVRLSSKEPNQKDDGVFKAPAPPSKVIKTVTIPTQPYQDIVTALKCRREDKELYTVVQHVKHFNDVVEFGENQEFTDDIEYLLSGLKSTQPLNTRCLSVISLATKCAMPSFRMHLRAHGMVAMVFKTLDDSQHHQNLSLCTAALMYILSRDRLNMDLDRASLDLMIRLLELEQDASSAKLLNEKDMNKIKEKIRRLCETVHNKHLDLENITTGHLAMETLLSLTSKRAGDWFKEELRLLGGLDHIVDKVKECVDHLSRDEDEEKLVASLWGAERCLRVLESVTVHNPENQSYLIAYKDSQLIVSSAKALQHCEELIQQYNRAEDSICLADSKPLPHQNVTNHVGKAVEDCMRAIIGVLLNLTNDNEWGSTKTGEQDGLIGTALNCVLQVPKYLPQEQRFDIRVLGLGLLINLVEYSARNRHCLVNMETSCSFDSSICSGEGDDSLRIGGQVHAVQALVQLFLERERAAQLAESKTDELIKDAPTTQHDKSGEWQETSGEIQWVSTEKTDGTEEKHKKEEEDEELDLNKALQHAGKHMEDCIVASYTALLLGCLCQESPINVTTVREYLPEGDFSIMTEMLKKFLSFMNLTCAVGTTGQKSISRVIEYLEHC
UniProt P15498: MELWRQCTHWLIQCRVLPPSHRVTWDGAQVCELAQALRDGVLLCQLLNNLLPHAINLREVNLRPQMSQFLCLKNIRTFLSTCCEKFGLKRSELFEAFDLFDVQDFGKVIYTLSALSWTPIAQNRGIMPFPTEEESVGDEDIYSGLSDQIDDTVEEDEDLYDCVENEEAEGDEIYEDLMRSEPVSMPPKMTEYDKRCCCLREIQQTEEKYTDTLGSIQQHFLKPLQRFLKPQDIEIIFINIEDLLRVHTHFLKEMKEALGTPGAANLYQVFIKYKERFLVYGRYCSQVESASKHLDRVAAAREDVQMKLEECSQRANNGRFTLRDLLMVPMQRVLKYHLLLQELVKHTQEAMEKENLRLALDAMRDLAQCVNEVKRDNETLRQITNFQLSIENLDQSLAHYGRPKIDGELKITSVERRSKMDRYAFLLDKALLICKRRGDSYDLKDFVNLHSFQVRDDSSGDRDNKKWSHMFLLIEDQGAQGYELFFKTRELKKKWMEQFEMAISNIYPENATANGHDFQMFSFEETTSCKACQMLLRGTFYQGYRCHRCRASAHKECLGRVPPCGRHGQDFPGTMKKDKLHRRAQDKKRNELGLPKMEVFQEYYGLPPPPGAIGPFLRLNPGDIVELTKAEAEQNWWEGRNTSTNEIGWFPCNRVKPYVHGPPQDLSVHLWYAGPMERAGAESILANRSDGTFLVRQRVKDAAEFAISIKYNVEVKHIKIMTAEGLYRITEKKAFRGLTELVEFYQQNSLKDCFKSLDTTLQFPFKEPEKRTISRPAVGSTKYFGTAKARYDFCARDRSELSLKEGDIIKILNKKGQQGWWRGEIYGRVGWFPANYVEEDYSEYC
UniProt P18206: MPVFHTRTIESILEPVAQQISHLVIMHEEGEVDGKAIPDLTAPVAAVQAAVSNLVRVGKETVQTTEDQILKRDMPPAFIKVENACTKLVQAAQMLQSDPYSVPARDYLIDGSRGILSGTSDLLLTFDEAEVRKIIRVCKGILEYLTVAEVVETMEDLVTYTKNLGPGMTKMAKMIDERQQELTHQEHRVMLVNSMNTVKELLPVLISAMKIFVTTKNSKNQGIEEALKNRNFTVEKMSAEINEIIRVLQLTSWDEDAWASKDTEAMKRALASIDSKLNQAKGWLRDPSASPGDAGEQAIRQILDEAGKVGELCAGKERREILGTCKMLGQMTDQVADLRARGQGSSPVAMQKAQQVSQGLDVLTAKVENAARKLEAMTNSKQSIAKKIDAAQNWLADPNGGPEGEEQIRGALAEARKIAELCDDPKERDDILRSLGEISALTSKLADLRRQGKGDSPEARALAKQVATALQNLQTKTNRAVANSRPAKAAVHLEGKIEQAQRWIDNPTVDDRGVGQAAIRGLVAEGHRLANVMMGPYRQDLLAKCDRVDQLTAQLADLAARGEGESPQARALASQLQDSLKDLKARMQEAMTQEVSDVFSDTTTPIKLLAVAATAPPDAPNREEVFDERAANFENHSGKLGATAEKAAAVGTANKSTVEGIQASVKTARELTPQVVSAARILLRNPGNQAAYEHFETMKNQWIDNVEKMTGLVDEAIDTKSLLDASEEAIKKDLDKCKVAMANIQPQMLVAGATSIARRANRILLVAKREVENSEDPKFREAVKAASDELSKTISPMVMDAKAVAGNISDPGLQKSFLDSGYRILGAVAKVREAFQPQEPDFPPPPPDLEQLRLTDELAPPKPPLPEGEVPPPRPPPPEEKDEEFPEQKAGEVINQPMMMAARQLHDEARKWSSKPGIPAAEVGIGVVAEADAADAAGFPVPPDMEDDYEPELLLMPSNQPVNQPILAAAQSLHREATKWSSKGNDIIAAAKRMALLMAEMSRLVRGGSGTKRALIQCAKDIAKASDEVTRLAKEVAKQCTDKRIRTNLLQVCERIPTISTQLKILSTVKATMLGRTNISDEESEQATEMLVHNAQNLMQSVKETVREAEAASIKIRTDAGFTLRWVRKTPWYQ
UniProt Q969X6: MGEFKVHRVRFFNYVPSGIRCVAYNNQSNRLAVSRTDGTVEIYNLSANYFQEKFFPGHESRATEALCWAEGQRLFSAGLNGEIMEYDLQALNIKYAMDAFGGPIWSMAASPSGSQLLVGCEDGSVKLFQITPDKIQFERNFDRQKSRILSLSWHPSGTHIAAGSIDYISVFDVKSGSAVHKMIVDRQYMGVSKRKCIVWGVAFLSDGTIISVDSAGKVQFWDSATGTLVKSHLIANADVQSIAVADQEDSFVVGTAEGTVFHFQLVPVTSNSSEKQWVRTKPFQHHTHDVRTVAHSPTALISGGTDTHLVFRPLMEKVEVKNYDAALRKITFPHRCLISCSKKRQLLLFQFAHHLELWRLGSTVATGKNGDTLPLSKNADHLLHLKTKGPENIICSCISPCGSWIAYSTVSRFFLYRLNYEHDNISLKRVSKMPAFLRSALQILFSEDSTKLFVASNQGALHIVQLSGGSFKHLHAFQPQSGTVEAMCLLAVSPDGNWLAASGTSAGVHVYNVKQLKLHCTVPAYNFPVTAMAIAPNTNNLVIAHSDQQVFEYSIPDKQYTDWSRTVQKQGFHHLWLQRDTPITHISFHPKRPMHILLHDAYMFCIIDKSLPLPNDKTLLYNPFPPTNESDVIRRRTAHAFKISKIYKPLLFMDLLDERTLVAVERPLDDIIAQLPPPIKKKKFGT
UniProt O95292, whole entry, looked up: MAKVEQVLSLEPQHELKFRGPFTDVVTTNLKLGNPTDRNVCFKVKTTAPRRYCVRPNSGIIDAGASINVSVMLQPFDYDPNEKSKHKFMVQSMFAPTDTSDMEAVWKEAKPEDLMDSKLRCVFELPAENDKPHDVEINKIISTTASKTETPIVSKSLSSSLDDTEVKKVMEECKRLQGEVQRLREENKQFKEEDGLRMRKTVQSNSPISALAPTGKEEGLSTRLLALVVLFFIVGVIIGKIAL
UniProt Q96AX1: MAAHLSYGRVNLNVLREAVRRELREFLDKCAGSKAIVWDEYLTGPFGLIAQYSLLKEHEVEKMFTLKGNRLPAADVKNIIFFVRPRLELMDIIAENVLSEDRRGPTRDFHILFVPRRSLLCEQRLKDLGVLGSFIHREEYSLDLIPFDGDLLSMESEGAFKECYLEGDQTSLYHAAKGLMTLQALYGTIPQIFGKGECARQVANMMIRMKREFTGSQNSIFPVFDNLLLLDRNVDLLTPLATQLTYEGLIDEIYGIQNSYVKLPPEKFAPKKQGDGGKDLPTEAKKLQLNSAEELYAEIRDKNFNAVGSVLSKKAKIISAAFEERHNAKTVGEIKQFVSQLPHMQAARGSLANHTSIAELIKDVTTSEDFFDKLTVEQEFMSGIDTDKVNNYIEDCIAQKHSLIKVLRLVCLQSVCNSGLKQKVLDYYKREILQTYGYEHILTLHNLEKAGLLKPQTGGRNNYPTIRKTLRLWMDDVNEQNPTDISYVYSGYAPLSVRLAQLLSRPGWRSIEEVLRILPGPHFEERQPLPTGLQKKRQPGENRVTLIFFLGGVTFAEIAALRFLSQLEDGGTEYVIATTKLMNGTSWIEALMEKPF
UniProt P49754: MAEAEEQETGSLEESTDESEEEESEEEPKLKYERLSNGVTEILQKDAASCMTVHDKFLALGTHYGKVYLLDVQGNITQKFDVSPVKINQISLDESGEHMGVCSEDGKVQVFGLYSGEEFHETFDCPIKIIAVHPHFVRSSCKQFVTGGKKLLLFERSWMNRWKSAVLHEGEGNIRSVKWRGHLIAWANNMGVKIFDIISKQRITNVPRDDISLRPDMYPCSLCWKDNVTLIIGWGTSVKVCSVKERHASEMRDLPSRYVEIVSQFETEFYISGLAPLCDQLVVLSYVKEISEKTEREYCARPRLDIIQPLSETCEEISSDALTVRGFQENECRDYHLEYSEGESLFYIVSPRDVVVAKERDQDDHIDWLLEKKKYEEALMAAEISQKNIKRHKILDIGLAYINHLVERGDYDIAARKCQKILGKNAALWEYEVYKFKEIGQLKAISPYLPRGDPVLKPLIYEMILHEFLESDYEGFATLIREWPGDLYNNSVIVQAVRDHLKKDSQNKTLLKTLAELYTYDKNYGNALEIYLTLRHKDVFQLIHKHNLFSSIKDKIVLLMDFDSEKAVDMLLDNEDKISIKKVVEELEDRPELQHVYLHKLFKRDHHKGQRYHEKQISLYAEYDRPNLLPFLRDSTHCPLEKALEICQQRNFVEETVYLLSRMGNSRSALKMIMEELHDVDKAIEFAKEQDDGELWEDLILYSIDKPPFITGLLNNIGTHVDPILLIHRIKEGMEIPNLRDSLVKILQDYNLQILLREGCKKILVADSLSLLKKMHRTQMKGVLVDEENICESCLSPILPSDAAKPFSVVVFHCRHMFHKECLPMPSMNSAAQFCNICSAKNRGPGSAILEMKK

The list shows a part of the results.
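Also: competitive chemoproteomic profiling in live THP-1 cells with an iodoacetamide desthiobiotin (IA-DTB) probe, comparing probe-labelled peptide intensities in compound-treated cells against DMSO-treated controls.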

Compound in the first assay: CC1Cc2ccccc2N1C(=O)C1CCCN(C1)C(=O)CCl (mixture of isomers) [TRIM25 ligand 11 (diastereomer mixture)]
As to the kind of experiment: probe-labelled cysteine peptide fold change vs DMSO (competition) (log2 fold change); higher = less target engagement (more negative = stronger competition). To be noted: 10 µM; THP-1; incubation time: 4 h.
As for “VAPA_Q9P0L0_128_CVFEMPNENDK (UniProt Q9P0L0)”, the “probe-labelled cysteine peptide fold change” value was -0.189.
Still for that read-out and setting: the result for “UTP18_Q9Y5J1_302_ACFSANGEEVLATSTHSK (UniProt Q9Y5J1)” reads 0.129.
On the same count and under the same terms, next, “VPS16_Q9H269_36_EELRDCLVAAAPYGGPIALLR (UniProt Q9H269)”: 0.37; “UTP6_Q9NYH9_566_EELNHPLGRPENCGQIYWR (UniProt Q9NYH9)”: -0.17.
Still for that read-out and setting: the result for “WAPL_Q7Z5K2_719_TLDDSQHHQNLSLCTAALMYILSR (UniProt Q7Z5K2)” reads -0.0493; that for “VAV2_P52735_44_DGVLLCQLLHNLSPGSIDLK (UniProt P52735)”, -0.00185; that for “VAPA_Q9P0L0_179_KLMEECK (UniProt Q9P0L0)”, -0.142.
With “VTA1_Q9NP79_87_KQLGDNEAITQEIVGCAHLENYALK (UniProt Q9NP79)”, the “probe-labelled cysteine peptide fold change” value was -0.158.
As to “VPS29_Q9UBQ0_36_IQHILCTGNLCTK (UniProt Q9UBQ0)”, the “probe-labelled cysteine peptide fold change” value is -0.0615.
On the same count and under the same terms, the result for “VAV1_P15498_369_DLAQCVNEVK (UniProt P15498)” reads 0.166; that for “VCL_P18206_545_CDRVDQLTAQLADLAAR (UniProt P18206)”, -0.0502; that for USP8_P40818_50_TAEECR (UniProt P40818), 0.265.
On the same count and under the same terms, the result for “UTP23_Q9BRU9_103_NAVSGSECLLSMVEEGNPHHYFVATQDQNLSVK (UniProt Q9BRU9)” reads -0.0133; that for “USP8_P40818_939_STVQCLTCHKK (UniProt P40818)”, -0.127; that for “VAMP7_P51809_64_IVYLCITDDDFER (UniProt P51809)”, 0.375.
On to “VPS37A_Q8NEZ2_375_TICHCR (UniProt Q8NEZ2)”, for which the “probe-labelled cysteine peptide fold change” value came to 0.905.
The same measure, in the same setting: the result for “VRK3_Q8IV63_418_FVDKPGPFVGPCGHWIRPSETLQK (UniProt Q8IV63)” reads -0.127; that for “VPS13C_Q709C8_2588_CQLFIQPAGILEHQYK (UniProt Q709C8)”, 0.0612; that for “USP9Y_O00507_1773_GDLLEGANAYHCEK (UniProt O00507)”, 0.0156.
Still for that read-out and setting: next, “UTP4_Q969X6_21_CVAYNNQSNR (UniProt Q969X6)”: 0.045; “VARS_P26640_381_GETTLWNPGCDHAGIATQVVVEK (UniProt P26640)”: 0.0505; “VPS8_Q8N3P4_512_QDCLTEALALAWSFHEGK (UniProt Q8N3P4)”: 0.0893.
Same read-out and setting: next, “VAV2_P52735_749_KFDSLLELVEYYQCHSLK (UniProt P52735)”: 0.113; “VPS45_Q9NRW7_359_NLLEVSEVEQELACQNDHSSALQNIKR (UniProt Q9NRW7)”: -0.0897; “VPS16_Q9H269_36_KYELYSMDWDLKEELRDCLVAAAPYGGPIALLR (UniProt Q9H269)”: -0.407.
Turning to “USP8_P40818_988_FYCSHCR (UniProt P40818)”, the “probe-labelled cysteine peptide fold change” value was 0.0334.
On the same count and under the same terms, next, “VPS53_Q5VIR6_424_CFEPHLYVYIESQDK (UniProt Q5VIR6)”: 0.082; “USP8_P40818_214_RMQDYQDSCILHSLSVPEEAISPGVTASWIEAHLPDDSK (UniProt P40818)”: 0.302.
On the same count and under the same terms, next, VAPB_O95292_173_VMEECK (UniProt O95292): -0.105.
On the same count and under the same terms, the result for “UTP20_O75691_2594_IKEDLEEQEALEDGVACADEK (UniProt O75691)” reads 0.0479; that for “UTP23_Q9BRU9_207_ISGPNPLSCLK (UniProt Q9BRU9)”, -0.071; that for “VPS52_Q8N1B4_119_SIRDYIQESENIASLHNQITACDAVLER (UniProt Q8N1B4)”, -0.293.
For the target “VPS33A_Q96AX1_121_SLLCEQR (UniProt Q96AX1)”, the “probe-labelled cysteine peptide fold change” value is -0.039.
With “VCPIP1_Q96JH7_219_SQECLIPVHVDGDGHCLVHAVSR (UniProt Q96JH7)”, the “probe-labelled cysteine peptide fold change” value was -0.566.
On the same count and under the same terms, the result for “VPS41_P49754_332_GFQENECR (UniProt P49754)” reads 0.135; that for “VPS4B_O75351_384_ADPNHLVDDLLTPCSPGDPGAIEMTWMDVPGDK (UniProt O75351)”, 0.0288; that for “VAV1_P15498_83_TFLSTCCEK (UniProt P15498)”, -0.0378.
Consider “VLDLR_P98155_40_CEPSQFQCTNGR (UniProt P98155)”, for which the “probe-labelled cysteine peptide fold change” value is -0.0128.
On the same count and under the same terms, the result for “VLDLR_P98155_97_CDGDPDCEDGSDESPEQCHMR (UniProt P98155)” reads 0.108; that for “VAPB_O95292_121_CVFELPAENDKPHDVEINK (UniProt O95292)”, -0.0428.

Staying with this assay, now noted: 50 µM; THP-1; incubation time: 4 h.
On to “VAPA_Q9P0L0_128_CVFEMPNENDK (UniProt Q9P0L0)”, for which the “probe-labelled cysteine peptide fold change” value was -0.346.
On the same count and under the same terms, next, “UTP18_Q9Y5J1_302_ACFSANGEEVLATSTHSK (UniProt Q9Y5J1)”: 0.0133; “VPS16_Q9H269_36_EELRDCLVAAAPYGGPIALLR (UniProt Q9H269)”: 0.395.
For the target “UTP6_Q9NYH9_566_EELNHPLGRPENCGQIYWR (UniProt Q9NYH9)”, the “probe-labelled cysteine peptide fold change” value came to 0.151.
On the same count and under the same terms, the result for “WAPL_Q7Z5K2_719_TLDDSQHHQNLSLCTAALMYILSR (UniProt Q7Z5K2)” reads -0.134; that for “VAV2_P52735_44_DGVLLCQLLHNLSPGSIDLK (UniProt P52735)”, 0.458; that for “VAPA_Q9P0L0_179_KLMEECK (UniProt Q9P0L0)”, -0.247.
“VTA1_Q9NP79_87_KQLGDNEAITQEIVGCAHLENYALK (UniProt Q9NP79)”: the “probe-labelled cysteine peptide fold change” value was -0.183.
On the same count and under the same terms, next, “VPS29_Q9UBQ0_36_IQHILCTGNLCTK (UniProt Q9UBQ0)”: -0.165; “VAV1_P15498_369_DLAQCVNEVK (UniProt P15498)”: 0.344.
The same measure, in the same setting: the result for “VCL_P18206_545_CDRVDQLTAQLADLAAR (UniProt P18206)” reads 0.105; that for USP8_P40818_50_TAEECR (UniProt P40818), 0.233; that for “UTP23_Q9BRU9_103_NAVSGSECLLSMVEEGNPHHYFVATQDQNLSVK (UniProt Q9BRU9)”, -0.153.
Same read-out and setting: the result for “USP8_P40818_939_STVQCLTCHKK (UniProt P40818)” reads -0.0772; that for “VAMP7_P51809_64_IVYLCITDDDFER (UniProt P51809)”, 0.342.
On to “VPS37A_Q8NEZ2_375_TICHCR (UniProt Q8NEZ2)”, for which the “probe-labelled cysteine peptide fold change” value worked out at 0.772.
Same read-out and setting: the result for “VRK3_Q8IV63_418_FVDKPGPFVGPCGHWIRPSETLQK (UniProt Q8IV63)” reads -0.248.
As for “VPS13C_Q709C8_2588_CQLFIQPAGILEHQYK (UniProt Q709C8)”, the “probe-labelled cysteine peptide fold change” value came to 0.0461.
Consider “USP9Y_O00507_1773_GDLLEGANAYHCEK (UniProt O00507)”, for which the “probe-labelled cysteine peptide fold change” value came to 0.00717.
Same read-out and setting: next, “UTP4_Q969X6_21_CVAYNNQSNR (UniProt Q969X6)”: 0.136; “VARS_P26640_381_GETTLWNPGCDHAGIATQVVVEK (UniProt P26640)”: 0.084; “VPS8_Q8N3P4_512_QDCLTEALALAWSFHEGK (UniProt Q8N3P4)”: 0.175.
On to “VAV2_P52735_749_KFDSLLELVEYYQCHSLK (UniProt P52735)”, for which the “probe-labelled cysteine peptide fold change” value is -0.0382.
Still for that read-out and setting: next, “VPS45_Q9NRW7_359_NLLEVSEVEQELACQNDHSSALQNIKR (UniProt Q9NRW7)”: -0.203; “VPS16_Q9H269_36_KYELYSMDWDLKEELRDCLVAAAPYGGPIALLR (UniProt Q9H269)”: -0.0887.
Same read-out and setting: next, “USP8_P40818_988_FYCSHCR (UniProt P40818)”: 0.112.
On the same count and under the same terms, the result for “VPS53_Q5VIR6_424_CFEPHLYVYIESQDK (UniProt Q5VIR6)” reads 0.253.
Turning to “USP8_P40818_214_RMQDYQDSCILHSLSVPEEAISPGVTASWIEAHLPDDSK (UniProt P40818)”, the “probe-labelled cysteine peptide fold change” value came to 0.254.
For the target VAPB_O95292_173_VMEECK (UniProt O95292), the “probe-labelled cysteine peptide fold change” value is -0.0297.
Take “UTP20_O75691_2594_IKEDLEEQEALEDGVACADEK (UniProt O75691)”: the “probe-labelled cysteine peptide fold change” value was found to be 0.017.
“UTP23_Q9BRU9_207_ISGPNPLSCLK (UniProt Q9BRU9)”: the “probe-labelled cysteine peptide fold change” value is -0.0449.
Same read-out and setting: the result for “VPS52_Q8N1B4_119_SIRDYIQESENIASLHNQITACDAVLER (UniProt Q8N1B4)” reads -0.191.
On the same count and under the same terms, next, “VPS33A_Q96AX1_121_SLLCEQR (UniProt Q96AX1)”: 0.0394.
Same read-out and setting: next, “VCPIP1_Q96JH7_219_SQECLIPVHVDGDGHCLVHAVSR (UniProt Q96JH7)”: -1.68; “VPS41_P49754_332_GFQENECR (UniProt P49754)”: 0.0295.
Take “VPS4B_O75351_384_ADPNHLVDDLLTPCSPGDPGAIEMTWMDVPGDK (UniProt O75351)”: the “probe-labelled cysteine peptide fold change” value turned out to be 0.138.
In the case of “VAV1_P15498_83_TFLSTCCEK (UniProt P15498)”, the “probe-labelled cysteine peptide fold change” value was found to be 0.202.
For “VLDLR_P98155_40_CEPSQFQCTNGR (UniProt P98155)”, the “probe-labelled cysteine peptide fold change” value was found to be 0.0756.
With “VLDLR_P98155_97_CDGDPDCEDGSDESPEQCHMR (UniProt P98155)”, the “probe-labelled cysteine peptide fold change” value was -0.0603.
The same measure, in the same setting: next, “VAPB_O95292_121_CVFELPAENDKPHDVEINK (UniProt O95292)”: -0.126.
